Test results reported in patent US10292391B2, “Pesticidally active 1,2,4-triazole derivatives with sulphur containing substituents” (Syngenta Participations AG, priority 2015, dated 2019).
Some of these results come from one statement about several compounds together.

Tested on: Aedes aegypti (Yellow Fever Mosquito)
Experiment: Activity against Aedes aegypti, dry deposit in tissue culture plates
Format: in vivo
Conditions: 200 ppm in ethanol; adult females; after 48 h and/or 24 h

Compound	control of Aedes aegypti
CCS(=O)(=O)c1cc(-c2cc(Cl)ccn2)cnc1-c1nnc(-c2cc(C(F)(F)F)ccn2)n1C [Compound P26]	at least 80%
CCS(=O)(=O)c1cc(-n2cnc(Cl)n2)cnc1-c1nnc(-c2cc(C(F)(F)F)ccn2)n1C [Compound P27]	at least 80%
CCS(=O)(=O)c1cc(C2(C#N)CC2)cnc1-c1nnc(-c2cc(C(F)(F)F)ccn2)n1C [Compound P17, 1-[5-ethylsulfonyl-6-[4-methyl-5-[4-(trifluoromethyl)-2-pyridyl]-1,2,4-triazol-3-yl]-3-pyridyl]cyclopropanecarbonitrile]	at least 80%
CCS(=O)(=O)c1ccc(-c2ncccn2)nc1-c1nnc(-c2cc(C(F)(F)F)ccn2)n1C [Compound P39]	at least 80%
CCS(=O)(=O)c1cc(-n2cc(Cl)cn2)cnc1-c1nnc(-c2cc(C(F)(F)F)ccn2)n1C [Compound P7]	at least 80%
CCS(=O)(=O)c1cc(-c2ccc(C#N)cn2)cnc1-c1nnc(-c2cc(C(F)(F)F)ccn2)n1C [Compound P22]	at least 80%
